# Measured values: paper PMC8782181
# Chains of the proteins cited; added tags and fusions are not shown.
# UniProt P53297: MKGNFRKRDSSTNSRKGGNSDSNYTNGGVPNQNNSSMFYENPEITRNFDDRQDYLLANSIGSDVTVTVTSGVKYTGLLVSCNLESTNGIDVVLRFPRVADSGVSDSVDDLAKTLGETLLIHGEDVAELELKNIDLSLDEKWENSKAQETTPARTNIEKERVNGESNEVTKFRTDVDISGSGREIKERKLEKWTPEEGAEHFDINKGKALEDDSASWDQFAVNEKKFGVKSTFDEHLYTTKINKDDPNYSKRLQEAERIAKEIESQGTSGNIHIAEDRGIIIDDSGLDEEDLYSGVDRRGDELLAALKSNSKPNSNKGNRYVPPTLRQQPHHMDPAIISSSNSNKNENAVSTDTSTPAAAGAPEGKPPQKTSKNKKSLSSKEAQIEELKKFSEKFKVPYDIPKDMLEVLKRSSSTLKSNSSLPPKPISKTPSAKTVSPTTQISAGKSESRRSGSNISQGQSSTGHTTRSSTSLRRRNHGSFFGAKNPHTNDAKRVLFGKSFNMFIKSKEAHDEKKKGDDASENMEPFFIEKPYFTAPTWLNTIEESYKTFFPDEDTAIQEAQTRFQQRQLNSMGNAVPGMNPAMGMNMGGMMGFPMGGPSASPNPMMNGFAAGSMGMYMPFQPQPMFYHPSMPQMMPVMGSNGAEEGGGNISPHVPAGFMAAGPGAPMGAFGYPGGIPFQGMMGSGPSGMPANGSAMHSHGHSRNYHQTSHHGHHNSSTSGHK
# No constants are given. Whether binding was seen depends on the method and setting. Binding seen in cells or lysates may run through a third protein. Here binding means that the protein was enriched with, or labelled near, the bait; the list need not be complete. For some assays here: Where a sequence is shown, tags or fusion partners need not be part of it.
# T1: Dcp1-myc (S. cerevisiae) (UniProt Q12517)
# T1 sequence: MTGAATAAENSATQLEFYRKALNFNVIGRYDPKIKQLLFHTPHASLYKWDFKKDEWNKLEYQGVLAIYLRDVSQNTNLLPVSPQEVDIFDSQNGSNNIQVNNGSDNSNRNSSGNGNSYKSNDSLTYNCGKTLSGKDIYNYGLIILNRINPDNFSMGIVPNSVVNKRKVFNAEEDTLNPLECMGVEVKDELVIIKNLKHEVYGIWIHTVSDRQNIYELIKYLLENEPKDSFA
# B1: Rrp3 (protein, UniProt P38712 1-501)
# chain: MSKIVKRKEKKANDELTSLAEKIRAKALENQKKLIEAEKEGGSESDSEEDATAEKKKVLKSKSKSTVSTQNENTNEDESFESFSELNLVPELIQACKNLNYSKPTPIQSKAIPPALEGHDIIGLAQTGSGKTAAFAIPILNRLWHDQEPYYACILAPTRELAQQIKETFDSLGSLMGVRSTCIVGGMNMMDQARDLMRKPHIIIATPGRLMDHLENTKGFSLRKLKFLVMDEADRLLDMEFGPVLDRILKIIPTQERTTYLFSATMTSKIDKLQRASLTNPVKCAVSNKYQTVDTLVQTLMVVPGGLKNTYLIYLLNEFIGKTMIIFTRTKANAERLSGLCNLLEFSATALHGDLNQNQRMGSLDLFKAGKRSILVATDVAARGLDIPSVDIVVNYDIPVDSKSYIHRVGRTARAGRSGKSISLVSQYDLELILRIEEVLGKKLPKESVDKNIILTLRDSVDKANGEVVMEMNRRNKEKIARGKGRRGRMMTRENMDMGER
# B2: Sbp1 (protein, UniProt P10080 1-294)
# chain: MSAEIEEATNAVNNLSINDSEQQPRAPTHKTVIDPEDTIFIGNVAHECTEDDLKQLFVEEFGDEVSVEIPIKEHTDGHIPASKHALVKFPTKIDFDNIKENYDTKVVKDREIHIKRARTPGQMQRGGFRGRGGFRGRGGFRGGFRGGYRGGFRGRGNFRGRGGARGGFNGQKREKIPLDQMERSKDTLYINNVPFKATKEEVAEFFGTDADSISLPMRKMRDQHTGRIFTSDSANRGMAFVTFSGENVDIEAKAEEFKGKVFGDRELTVDVAVIRPENDEEEIEQETGSEEKQE
# B3: eIF2A (protein, UniProt P53235 1-642)
# chain: MSSQFFLKTSQDIELFQSYPTFEQSNTNSKDFPVISSVLSPCGRFLALSTKENVKVFTGPCLDNVLLTMKLSDVYDLHFSPAGNYLSTWERASIQDPNHKNVKVWYLNKPFKKDCVSEDIVPAYEYQAKSQSGWFLQFSKLDNYGLRLFKHDLKIVKLSSANADNFDFQSPFAVLSDDETSQHFTTYLISPAEHPTICTFTPEKGGKPAQLIIWALSEGKITKKIASKTFFKADSCQLKWNPLGNAILCLAITDFDSSNKSYYGENTLYLLSFQGVNGTLGGNSVRVSLTTGPVHDFTWSPTSRQFGVIAGYMPATISFFDLRGNVVHSLPQQAKNTMLFSPSGHYILIAGFGNLQGSVEILDRLDKFKCVSKFDATNTSVCKWSPGGEFIMTATTSPRLRVDNGVKIWHVSGSLVFVKEFKELLKVDWRSPCNYKTLENKDEAFFENHIINNWEPLPDSTTSSLDPKISNKSELQIHSSVQEYISQHPSREASSNGNGSKAKAGGAYKPPHARRTGGGRIVPGVPPGAAKKTIPGLVPGMSANKDANTKNRRRRANKKSSETSPDSTPAPSAPASTNAPTNNKETSPEEKKIRSLLKKLRAIETLKERQAVGDKLEDTQVLKIQTEEKVLKDLEKLGWKDE
# B4: Scp160 (protein, UniProt P06105 1-1222)
# chain: MSEEQTAIDSPPSTVEGSVETVTTIDSPSTTASTIAATAEEHPQLEKKPTPLPSLKDLPSLGSNAAFANVKVSWGPNMKPAVSNSPSPSPSAPSLTTGLGAKRMRSKNIQEAFTLDLQSQLSITKPELSRIVQSVKKNHDVSVESTLSKNARTFLVSGVAANVHEAKRELVKKLTKPINAVIEVPSKCKASIIGSGGRTIREISDAYEVKINVSKEVNENSYDEDMDDTTSNVSLFGDFESVNLAKAKILAIVKEETKNATIKLVVEDEKYLPYIDVSEFASDEGDEEVKVQFYKKSGDIVILGPREKAKATKTSIQDYLKKLASNLDEEKVKIPSKFQFLIDAEELKEKYNVIVTFPSTPDDELVSFVGLRDKVGEAITYARSSSKSYVVESLDISKAHSKNLTHAKNLIMYFTKYSVLKGLEESHPNVKISLPSIQSLPTAETVTIHISAKSDEANDIKAVRKELISFVNNIPPSETLVITDLDYELFGGSIKHCLLASESSVAFVQFGDYYPNDNSILLVALTEDEDFKPSIEEIQASLNKANESLNSLRTKQNNMETKTYEFSEEVQDSLFKPSSATWKLIMEDISEQEGHLQIKLHTPEENQLTVRGDEKAAKAANKIFESILNSPSSKSKMTVNIPANSVARLIGNKGSNLQQIREKFACQIDIPNEENNNASKDKTVEVTLTGLEYNLTHAKKYLAAEAKKWADIITKELIVPVKFHGSLIGPHGTYRNRLQEKYNVFINFPRDNEIVTIRGPSRGVNKAHEELKALLDFEMENGHKMVINVPAEHVPRIIGKNGDNINDIRAEYGVEMDFLQKSTDPKAQETGEVELEITGSRQNIKDAAKRVESIVAEASDFVTEVLKIDHKYHKSIVGSGGHILREIISKAGGEEIRNKSVDIPNADSENKDITVQGPQKFVKKVVEEINKIVKDAENSVTKTIDIPAERKGALIGPGGIVRRQLESEFNINLFVPNKDDPSGKITITGAPENVEKAEKKILNEIIRENFDREVDVPASIYEYVSERGAFIQKLRMDLSVNVRFGNTSKKANKLARAPIEIPLEKVCGSTEGENAEKTKFTIEEVGAPTSSEEGDITMRLTYEPIDLSSILSDGEEKEVTKDTSNDSAKKEEALDTAVKLIKERIAKAPSATYAGYVWGADTRRFNMIVGPGGSNIKKIREAADVIINVPRKSDKVNDVVYIRGTKAGVEKAGEMVLKSLRR
# B5: eIF4G1 (protein, UniProt P39935 1-952)
# chain: MTDETAHPTQSASKQESAALKQTGDDQQESQQQRGYTNYNNGSNYTQKKPYNSNRPHQQRGGKFGPNRYNNRGNYNGGGSFRGGHMGANSSNVPWTGYYNNYPVYYQPQQMAAAGSAPANPIPVEEKSPVPTKIEITTKSGEHLDLKEQHKAKLQSQERSTVSPQPESKLKETSDSTSTSTPTPTPSTNDSKASSEENISEAEKTRRNFIEQVKLRKAALEKKRKEQLEGSSGNNNIPMKTTPENVEEKGSDKPEVTEKTKPAEEKSAEPEVKQETPAEEGEQGEKGQIKEESTPKVLTFAERLKLKKQQKEREEKTEGKENKEVPVQEETKSAIESAPVPPSEQVKEETEVAETEQSNIDESATTPAIPTKSDEAEAEVEAEAGDAGTKIGLEAEIETTTDETDDGTNTVSHILNVLKDATPIEDVFSFNYPEGIEGPDIKYKKEHVKYTYGPTFLLQFKDKLNVKADAEWVQSTASKIVIPPGMGRGNRSRDSGRFGNNSSRGHDFRNTSVRNMDDRANSRTSSKRRSKRMNDDRRSNRSYTSRRDRERGSYRNEEKREDDKPKEEVAPLVPSANRWVPKFKSKKTEKKLAPDGKTELLDKDEVERKMKSLLNKLTLEMFDAISSEILAIANISVWETNGETLKAVIEQIFLKACDEPHWSSMYAQLCGKVVKELNPDITDETNEGKTGPKLVLHYLVARCHAEFDKGWTDKLPTNEDGTPLEPEMMSEEYYAAASAKRRGLGLVRFIGFLYRLNLLTGKMMFECFRRLMKDLTDSPSEETLESVVELLNTVGEQFETDSFRTGQATLEGSQLLDSLFGILDNIIQTAKISSRIKFKLIDIKELRHDKNWNSDKKDNGPKTIQQIHEEEERQRQLKNNSRSNSRRTNNSSNRHSFRRDAPPASKDSFITTRTYSQRNSQRAPPPKEEPAAPTSTATNMFSALMGESDDEE
# B6: Ubp3 (protein, UniProt Q01477 1-912)
# chain: MNMQDANKEESYSMYPKTSSPPPPTPTNMQIPIYQAPLQMYGYTQAPYLYPTQIPAYSFNMVNQNQPIYHQSGSPHHLPPQNNINGGSTTNNNNINKKKWHSNGITNNNGSSGNQGANSSGSGMSYNKSHTYHHNYSNNHIPMMASPNSGSNAGMKKQTNSSNGNGSSATSPSYSSYNSSSQYDLYKFDVTKLKNLKENSSNLIQLPLFINTTEAEFAAASVQRYELNMKALNLNSESLENSSVEKSSAHHHTKSHSIPKHNEEVKTETHGEEEDAHDKKPHASKDAHELKKKTEVKKEDAKQDRNEKVIQEPQATVLPVVDKKEPEESVEENTSKTSSPSPSPPAAKSWSAIASDAIKSRQASNKTVSGSMVTKTPISGTTAGVSSTNMAAATIGKSSSPLLSKQPQKKDKKYVPPSTKGIEPLGSIALRMCFDPDFISYVLRNKDVENKIPVHSIIPRGIINRANICFMSSVLQVLLYCKPFIDVINVLSTRNTNSRVGTSSCKLLDACLTMYKQFDKETYEKKFLENADDAEKTTESDAKKSSKSKSFQHCATADAVKPDEFYKTLSTIPKFKDLQWGHQEDAEEFLTHLLDQLHEELISAIDGLTDNEIQNMLQSINDEQLKVFFIRNLSRYGKAEFIKNASPRLKELIEKYGVINDDSTEENGWHEVSGSSKRGKKTKTAAKRTVEIVPSPISKLFGGQFRSVLDIPNNKESQSITLDPFQTIQLDISDAGVNDLETAFKKFSEYELLPFKSSSGNDVEAKKQTFIDKLPQVLLIQFKRFSFINNVNKDNAMTNYNAYNGRIEKIRKKIKYGHELIIPEESMSSITLKNNTSGIDDRRYKLTGVIYHHGVSSDGGHYTADVYHSEHNKWYRIDDVNITELEDDDVLKGGEEASDSRTAYILMYQKRN
# B7: Whi4 (protein, UniProt Q07655 1-649)
# chain: MSLVHNQTNLNESKFLIERAFSSSSETVPLSKEATYPMPTAYSFSAVRSNSETNIKRENPQGFAKEPIMTSMLHNLTMSTGKGNGNDVNSLAPHDVDVGPYCLLLRNLPKDITLRECYCIFSLATGVSSIELKRDDREPFNDNEKVVVVKFGSLSLVTHYANILNSKSEIFGPSFPFRSHIDVVNEQTQLPVSFQEHVSSGTTNSSPKNYQLSSSAQNEIQNQSFNTISYGKTSSSPLGPSAAKPRPSLLSERSLRFSFNDPFGLETISQRKESVPFLRNSISQHDLSNVTTTPVPAGMPPQKDAGKSLLLLEKDEINESIWNGDELVNDVGNSSFGASLQEPPMSSTPVMEWNASSTANIPLFQLSSQENHQSNLLPPSHHSISQDVPHIQSQPNLNNSGVIHSATSLPHYHLLNQINASTKTQSIQQSVSNVPSNLDLNLQTENGHPQSSAPNGSSIFNNQKVNQGFLVSEQDTSTISRQKECSSTASASAFSKNNETNVAGSTTISQADLSLLAKVPPPANPADQNPPCNTLYVGNLPPDATEQELRQLFSNQQGFRRLSFRNKMNSHGHGNGHGHGPICFVEFEDVSFATRALAELYGSQLPHPRPSLNNKGGIRLSFSKNPLGVRGSNSRSKSGYSFNGSYGKS
# Legend:
# Dcp1-myc (S. cerevisiae) = molecular target: T1, Dcp1-myc (S. cerevisiae); assay: affinity purification with mass spectrometry; cells unstressed or glucose-depleted (10 min for Dcp1-myc, 60 min for Pbp1-myc), cross-linked with 0.8% formaldehyde; 20,000 g pellet of the lysate in Blob100 buffer (20 mM Tris-HCl pH 8, 100 mM NaCl, 1 mM MgCl2, 0.5% NP40) on anti-c-Myc magnetic beads, eluted with Myc peptide; label-free LC-MS/MS; hits are the proteins that cluster (Mfuzz) with the tagged bait across IP, pellet, supernatant, total and unbound fractions
# Pbp1-myc (S. cerevisiae) = Pbp1-myc (S. cerevisiae) (UniProt P53297); assay: as above
Binder,binding (Dcp1-myc (S. cerevisiae)),binding (Pbp1-myc (S. cerevisiae))
B1,binds,binds
B2,binds,binds
B3,binds,binds
B4,binds,binds
B5,binds,binds
B6,binds,binds
B7,binds,binds
